Measurements reported in PubChem BioAssay AID1259254 (NCATS, 2017)
Here is an unselected part of about 59,000 reagents. Of all reagents, about 1,550 (2.6%) are marked active. 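G2 share is only a proxy for re-replication; each gene was hit by three separate siRNAs, and active genes were retested.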 A number with no mark means an inactive call. The numbers tell different reagents against one gene apart. Further read-outs or replicates are left out here. Reagent sequences are not shown. The record does not give: the amount of reagent.

Aim: 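Finding genes that stop cells copying their DNA twice in one cycle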 (primary screen)
Cells: human HCT116 colorectal cancer cells
Reagent: single siRNA against human genes
Time to read-out: 3 days
Measured: 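Imaged Hoechst DNA stain sorts each cell into a cycle phase by DNA amount; per plate, G2 fraction set to 0% for non-targeting and 100% for GMNN siRNA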
Scale: G2 robust z-score: higher = more G2 cells, more excess DNA replication
Call rule: 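Active siRNAs have a G2 robust z of 5 or more median absolute deviations over the median, which in these data means about 38% or higher of GMNN control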

no.	Target gene	siRNA no.	G2 robust z-score
1	FREM3	1	1.11
2	FREM3	2	3.1
3	FREM3	3	-0.548
4	HSPA2	1	1.92
5	HSPA2	2	0.197
6	HSPA2	3	-0.37
7	TAS2R43	1	-1.25
8	TAS2R43	2	-0.652
9	TAS2R43	3	0.26
10	OR4C3	1	-0.458
11	OR4C3	2	0.889
12	OR4C3	3	-0.253
13	IFTAP	1	-0.956
14	IFTAP	2	0.0081
15	IFTAP	3	-0.989
16	CYP26B1	1	-1.44
17	CYP26B1	2	2.47
18	CYP26B1	3	0.473
19	PHOSPHO1	1	-0.722
20	PHOSPHO1	2	3.78
21	PHOSPHO1	3	-1.23
22	FLII	1	1.45
23	FLII	2	-0.702
24	FLII	3	2.91
25	SULT1B1	1	-1.1
26	SULT1B1	2	-0.732
27	SULT1B1	3	-0.365
28	MXRA5	1	-0.347
29	MXRA5	2	-0.673
30	MXRA5	3	-0.928
31	PSORS1C1	1	0.416
32	PSORS1C1	2	0.039
33	PSORS1C1	3	0.411
34	MYOC	1	-1.06
35	MYOC	2	-0.965
36	MYOC	3	-1.42
37	DOC2A	1	-0.661
38	DOC2A	2	1.14
39	DOC2A	3	0.744
40	GOLGA8J	1	-0.0756
41	GOLGA8J	2	1.23
42	GOLGA8J	3	0.947
43	ECM1	1	1.29
44	ECM1	2	-0.285
45	ECM1	3	-0.248
46	C1D	1	4.37
47	C1D	2	-0.666
48	C1D	3	0.653
49	E2F8	1	4.92
50	E2F8	2	-0.0926
51	E2F8	3	1.12
52	EIF3K	1	1.8
53	EIF3K	2	-0.347
54	EIF3K	3	-1.13
55	ZBTB35	1	-0.46
56	ZBTB35	2	1.79
57	ZBTB35	3	0.606
58	LRRC39	1	0.18
59	LRRC39	2	-0.508
60	LRRC39	3	-0.376
61	OGN	1	1.59
62	OGN	2	-0.425
63	OGN	3	1.11
64	DZIP3	1	0.727
65	DZIP3	2	-1.11
66	DZIP3	3	0.497
67	YJU2	1	-0.469
68	YJU2	2	0.0973
69	YJU2	3	-0.655

Quoted from the entries so far for reference:
no.	Target gene	siRNA no.	G2 robust z-score
5	HSPA2	2	0.197
6	HSPA2	3	-0.37
7	TAS2R43	1	-1.25
8	TAS2R43	2	-0.652
9	TAS2R43	3	0.26
10	OR4C3	1	-0.458
11	OR4C3	2	0.889
12	OR4C3	3	-0.253
13	IFTAP	1	-0.956
14	IFTAP	2	0.0081
15	IFTAP	3	-0.989
